Measured values published in publication PMC4653010.
Results are given in words; binding and its absence hold for the method and conditions named. For part of these data: In cells and extracts the contact can be indirect. Some results given as binding are weak or reduced against the parent protein; the word gives no strength. Tags and fused reporters may be left off the sequences shown.

Chains of the proteins cited; added tags and fusions are not shown.
UniProt Q13541: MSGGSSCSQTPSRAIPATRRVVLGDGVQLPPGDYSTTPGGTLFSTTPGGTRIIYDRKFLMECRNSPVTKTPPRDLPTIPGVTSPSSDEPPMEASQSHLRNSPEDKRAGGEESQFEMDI

Assays:
[1] = target: T1, GST-PC-1 (PC-1/PrLZ, prostate Leucine Zipper gene product, fused to glutathione S-transferase) (human) (UniProt P55327); test: pull-down; GST-PC-1 immobilised on GST-Sepharose beads, incubated with purified His-4E-BP1 at 4°C for 3 h; beads washed 4 times with lysis buffer; blot with anti-His; both purified
T1 sequence: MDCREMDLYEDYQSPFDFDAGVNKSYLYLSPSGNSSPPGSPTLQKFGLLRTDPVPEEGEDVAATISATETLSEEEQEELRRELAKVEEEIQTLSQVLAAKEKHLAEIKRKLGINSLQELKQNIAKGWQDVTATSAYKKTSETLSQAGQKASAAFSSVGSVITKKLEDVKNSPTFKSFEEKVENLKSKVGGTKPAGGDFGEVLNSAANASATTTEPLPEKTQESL

[2] = target: T2, Myc-PC-1 (PC-1/PrLZ) in LNCaP-pc-1 cells (human) (UniProt P55327); test: co-IP; LNCaP-pc-1 lysate (50 mmol/l Tris pH 8.0, 50 mmol/l NaCl, 0.1% Nonidet P-40), anti-myc antibody at 4°C for 3 h, protein A/G-Sepharose for 6 h; blot with anti-4E-BP1
T2 sequence: T1 sequence

[3] = target: GST-4E-BP1 (eukaryotic initiation factor 4E-binding protein 1 fused to glutathione S-transferase) (human) (UniProt Q13541); test: pull-down; GST-4E-BP1 immobilised on GST-Sepharose beads, incubated with lysate of 293T cells transfected with pCMV-2Btag-PC-1 at 4°C for 3 h; beads washed 4 times with lysis buffer; blot with anti-Flag; only the target purified

With “His-4E-BP1 (eukaryotic initiation factor 4E-binding protein 1) (from UniProt Q13541 1-118)” as the molecule, how does the binding [1] read?
The binding was “binds”.

For “endogenous 4E-BP1 (eukaryotic initiation factor 4E-binding protein 1) (from UniProt Q13541 1-118)”, which binding [2] is on record?
The binding was “binds”.

B1: Flag-PC-1 (PC-1/PrLZ) (protein, UniProt P55327 1-224)
chain: T1 sequence
Which binding [3] does the source give for B1 here?
The binding was “binds”.
